Assay [1] has as its target Sp1 (human (endogenous in RD18, RD and HSMM)) (UniProt P08047). In words: proximity ligation; Duolink in situ fluorescence PLA on endogenous proteins in cells (RD18, RD, HSMM), control (DMSO) and 2.5 uM UNC0642-treated; dots per nuclei counted by confocal microscopy.
The target of assay [2] is p300 (human (endogenous in RD18, RD and HSMM)) (UniProt Q09472). Described as above.

The chains behind the UniProt entries cited, without tags or fusion partners.
UniProt P08047: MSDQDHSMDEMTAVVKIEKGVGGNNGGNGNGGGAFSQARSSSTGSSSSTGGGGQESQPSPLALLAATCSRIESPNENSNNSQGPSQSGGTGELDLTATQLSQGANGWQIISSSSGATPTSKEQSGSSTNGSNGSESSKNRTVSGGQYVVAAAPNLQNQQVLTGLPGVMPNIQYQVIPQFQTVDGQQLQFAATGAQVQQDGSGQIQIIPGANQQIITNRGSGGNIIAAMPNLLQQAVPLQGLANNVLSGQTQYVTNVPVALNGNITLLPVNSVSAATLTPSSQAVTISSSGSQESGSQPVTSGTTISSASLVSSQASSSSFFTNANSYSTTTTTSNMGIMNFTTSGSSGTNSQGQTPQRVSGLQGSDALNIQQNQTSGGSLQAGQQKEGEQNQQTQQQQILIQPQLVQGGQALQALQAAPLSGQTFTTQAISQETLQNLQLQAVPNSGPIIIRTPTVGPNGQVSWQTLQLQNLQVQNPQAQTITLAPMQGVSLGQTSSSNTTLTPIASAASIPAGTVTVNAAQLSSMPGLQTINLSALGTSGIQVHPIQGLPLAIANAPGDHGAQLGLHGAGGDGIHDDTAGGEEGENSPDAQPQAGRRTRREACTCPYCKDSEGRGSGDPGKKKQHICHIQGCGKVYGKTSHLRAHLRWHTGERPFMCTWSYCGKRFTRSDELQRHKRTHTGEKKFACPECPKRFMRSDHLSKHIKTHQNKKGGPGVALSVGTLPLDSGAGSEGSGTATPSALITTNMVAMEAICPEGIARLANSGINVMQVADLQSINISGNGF
UniProt Q09472: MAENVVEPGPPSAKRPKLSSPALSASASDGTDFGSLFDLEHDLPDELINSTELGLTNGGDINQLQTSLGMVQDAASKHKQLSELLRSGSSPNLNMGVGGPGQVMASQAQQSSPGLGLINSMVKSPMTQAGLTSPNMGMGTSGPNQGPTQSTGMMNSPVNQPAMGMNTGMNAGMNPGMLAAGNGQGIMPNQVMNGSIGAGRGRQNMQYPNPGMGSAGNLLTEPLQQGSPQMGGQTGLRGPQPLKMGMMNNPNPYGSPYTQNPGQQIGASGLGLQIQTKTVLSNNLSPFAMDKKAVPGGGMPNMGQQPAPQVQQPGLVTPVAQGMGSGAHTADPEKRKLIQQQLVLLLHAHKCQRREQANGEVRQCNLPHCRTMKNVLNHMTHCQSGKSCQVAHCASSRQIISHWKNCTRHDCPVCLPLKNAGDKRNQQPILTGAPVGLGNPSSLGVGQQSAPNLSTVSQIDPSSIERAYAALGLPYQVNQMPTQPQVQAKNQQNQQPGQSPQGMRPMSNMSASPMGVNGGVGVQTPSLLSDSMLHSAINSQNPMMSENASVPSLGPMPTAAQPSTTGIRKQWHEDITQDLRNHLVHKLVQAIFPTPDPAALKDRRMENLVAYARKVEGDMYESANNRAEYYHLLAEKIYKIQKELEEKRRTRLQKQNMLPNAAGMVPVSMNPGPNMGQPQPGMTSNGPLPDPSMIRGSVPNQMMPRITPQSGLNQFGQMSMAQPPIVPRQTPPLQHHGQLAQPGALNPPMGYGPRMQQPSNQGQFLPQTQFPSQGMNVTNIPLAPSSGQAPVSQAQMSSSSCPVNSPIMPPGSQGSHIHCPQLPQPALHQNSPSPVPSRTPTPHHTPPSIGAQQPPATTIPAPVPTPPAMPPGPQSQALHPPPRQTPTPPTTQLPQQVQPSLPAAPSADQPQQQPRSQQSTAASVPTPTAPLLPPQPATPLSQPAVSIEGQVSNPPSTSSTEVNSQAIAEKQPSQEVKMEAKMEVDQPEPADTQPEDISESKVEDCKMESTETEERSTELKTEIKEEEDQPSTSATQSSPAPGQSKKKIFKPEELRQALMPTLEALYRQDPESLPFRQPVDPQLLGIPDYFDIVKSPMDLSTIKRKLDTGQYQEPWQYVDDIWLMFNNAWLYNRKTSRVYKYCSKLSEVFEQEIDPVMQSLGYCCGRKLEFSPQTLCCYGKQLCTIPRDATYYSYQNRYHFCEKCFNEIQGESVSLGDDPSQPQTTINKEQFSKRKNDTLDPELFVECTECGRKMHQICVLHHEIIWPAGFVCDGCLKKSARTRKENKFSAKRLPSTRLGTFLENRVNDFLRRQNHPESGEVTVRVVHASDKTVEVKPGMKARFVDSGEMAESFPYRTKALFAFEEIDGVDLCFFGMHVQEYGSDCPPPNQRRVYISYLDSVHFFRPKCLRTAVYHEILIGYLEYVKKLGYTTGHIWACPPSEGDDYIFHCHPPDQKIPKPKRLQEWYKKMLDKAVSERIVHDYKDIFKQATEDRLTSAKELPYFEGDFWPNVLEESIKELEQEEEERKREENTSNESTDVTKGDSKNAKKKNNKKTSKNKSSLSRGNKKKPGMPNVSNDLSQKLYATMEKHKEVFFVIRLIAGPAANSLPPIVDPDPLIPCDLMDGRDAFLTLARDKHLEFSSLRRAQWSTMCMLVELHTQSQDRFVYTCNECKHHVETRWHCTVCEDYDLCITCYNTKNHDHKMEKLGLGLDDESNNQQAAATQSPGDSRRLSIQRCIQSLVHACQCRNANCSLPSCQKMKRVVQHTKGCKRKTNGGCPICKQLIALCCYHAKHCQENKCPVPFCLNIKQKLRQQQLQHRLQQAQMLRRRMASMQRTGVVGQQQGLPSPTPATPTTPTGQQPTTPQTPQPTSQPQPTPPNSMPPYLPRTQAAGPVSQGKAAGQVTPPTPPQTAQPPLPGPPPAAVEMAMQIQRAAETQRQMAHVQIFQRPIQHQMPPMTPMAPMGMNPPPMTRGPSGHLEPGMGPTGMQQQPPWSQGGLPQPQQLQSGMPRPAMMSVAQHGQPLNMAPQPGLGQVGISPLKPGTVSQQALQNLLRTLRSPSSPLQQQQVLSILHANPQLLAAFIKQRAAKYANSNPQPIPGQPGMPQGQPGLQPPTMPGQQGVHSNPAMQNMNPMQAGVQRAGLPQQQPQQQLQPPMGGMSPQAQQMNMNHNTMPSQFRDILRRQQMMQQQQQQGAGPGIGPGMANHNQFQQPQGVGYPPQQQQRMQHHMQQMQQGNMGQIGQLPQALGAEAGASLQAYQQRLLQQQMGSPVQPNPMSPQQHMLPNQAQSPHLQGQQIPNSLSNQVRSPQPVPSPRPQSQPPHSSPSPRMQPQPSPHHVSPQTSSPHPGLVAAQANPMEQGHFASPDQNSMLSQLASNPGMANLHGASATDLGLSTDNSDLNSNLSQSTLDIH
UniProt Q96KQ7: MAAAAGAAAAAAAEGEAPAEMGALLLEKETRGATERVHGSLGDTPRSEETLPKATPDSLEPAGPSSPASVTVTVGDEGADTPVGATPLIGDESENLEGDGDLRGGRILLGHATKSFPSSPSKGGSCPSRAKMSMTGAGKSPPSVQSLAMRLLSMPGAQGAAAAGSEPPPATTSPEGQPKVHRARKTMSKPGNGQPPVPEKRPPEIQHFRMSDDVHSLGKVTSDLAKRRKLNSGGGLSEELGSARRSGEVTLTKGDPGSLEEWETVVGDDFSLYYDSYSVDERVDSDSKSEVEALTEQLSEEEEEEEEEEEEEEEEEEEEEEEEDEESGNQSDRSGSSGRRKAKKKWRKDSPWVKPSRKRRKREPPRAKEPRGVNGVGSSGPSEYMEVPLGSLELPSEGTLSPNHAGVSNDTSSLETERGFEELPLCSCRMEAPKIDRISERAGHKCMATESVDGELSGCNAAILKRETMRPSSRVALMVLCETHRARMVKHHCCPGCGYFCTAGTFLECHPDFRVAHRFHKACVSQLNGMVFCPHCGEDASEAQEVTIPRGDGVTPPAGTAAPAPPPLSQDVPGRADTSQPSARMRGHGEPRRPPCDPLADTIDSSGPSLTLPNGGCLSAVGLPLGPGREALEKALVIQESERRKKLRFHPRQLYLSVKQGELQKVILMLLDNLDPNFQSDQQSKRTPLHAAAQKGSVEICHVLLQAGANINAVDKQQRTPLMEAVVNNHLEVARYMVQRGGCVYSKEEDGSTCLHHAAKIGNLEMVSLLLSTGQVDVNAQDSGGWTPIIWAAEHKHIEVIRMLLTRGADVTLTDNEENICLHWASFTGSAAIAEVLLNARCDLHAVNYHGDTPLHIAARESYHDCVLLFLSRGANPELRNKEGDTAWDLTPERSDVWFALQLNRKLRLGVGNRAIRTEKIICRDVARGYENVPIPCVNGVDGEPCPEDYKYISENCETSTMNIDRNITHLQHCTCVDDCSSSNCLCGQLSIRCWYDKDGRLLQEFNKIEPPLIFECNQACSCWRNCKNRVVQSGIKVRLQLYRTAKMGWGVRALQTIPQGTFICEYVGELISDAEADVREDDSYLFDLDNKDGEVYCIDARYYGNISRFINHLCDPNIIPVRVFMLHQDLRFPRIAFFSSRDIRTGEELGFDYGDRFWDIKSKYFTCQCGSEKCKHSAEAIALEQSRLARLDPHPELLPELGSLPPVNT

Results are given in words; binding and its absence hold for the method and conditions named. Binding seen in cells or lysates may run through a third protein. Some results given as binding are weak or reduced against the parent protein; the word gives no strength.

Regarding EHMT2 (from UniProt Q96KQ7 1-1210), the binding result in assay [1] and in assay [2] was “binds” in each case.

For the origin of these results see paper PMC7728445.
